We go through 2 molecules from article PMC5641094, “A peptide antagonist of Prep1-p160 interaction improves ceramide-induced insulin resistance in skeletal muscle cells” (Oncotarget, 2017).

One assay deals with T1, Prep1(45-155) (UniProt P55347).
T1 sequence: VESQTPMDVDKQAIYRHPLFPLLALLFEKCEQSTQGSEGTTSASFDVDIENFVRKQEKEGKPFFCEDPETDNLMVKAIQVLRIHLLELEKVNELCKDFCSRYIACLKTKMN
As to the kind of experiment: ELISA; competition ELISA: plate coated with Prep1(45-155) (0.1 uM); His6-tagged p160(20-160) at 0.25 uM pre-incubated with peptides at 0.001-10 uM; detection with anti-His HRP-conjugated antibody; both purified.

A further assay concerns the target T2, His6-tagged p160(20-160) (UniProt Q7TPV4 20-160).
T2 construct: also called His6-p160(20-160); p160(20-160) domain
T2 sequence (looked up): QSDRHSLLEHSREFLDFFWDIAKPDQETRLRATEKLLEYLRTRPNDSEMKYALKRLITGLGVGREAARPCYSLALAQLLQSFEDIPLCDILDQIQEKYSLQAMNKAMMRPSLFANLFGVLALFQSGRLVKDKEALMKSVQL
Described as above.

No constants are given. Whether binding was seen depends on the method and setting. Some entries that bind do so weakly or less than the wild type. Sequences can lack the tags named with a protein.

B1: His6-tagged p160(20-160) (domain or fragment, UniProt Q7TPV4 20-160)
chain: T2 sequence (looked up)
Regarding B1, the binding result with Prep1(45-155) is on record as “binds”.

On to RHPLFPLLALLFEK (N-terminal acetyl (Ac-); C-terminal amide (-NH2)) [Prep1(59-72) peptide], for which the binding result with His6-tagged p160(20-160) is reported as “binds”.
